Data reported in article doi:10.1101/2025.05.06.652514.
Results are given in words; binding and its absence hold for the method and conditions named. For part of these data: In cells and extracts the contact can be indirect. Some results given as binding are weak or reduced against the parent protein; the word gives no strength. For part of these data: Where a sequence is shown, tags or fusion partners need not be part of it.

T1: ULT1, full length, split-luciferase fusion (ULT1-nLUC and ULT1-cLUC) (Arabidopsis thaliana) (UniProt Q8GZA8)
T1 sequence: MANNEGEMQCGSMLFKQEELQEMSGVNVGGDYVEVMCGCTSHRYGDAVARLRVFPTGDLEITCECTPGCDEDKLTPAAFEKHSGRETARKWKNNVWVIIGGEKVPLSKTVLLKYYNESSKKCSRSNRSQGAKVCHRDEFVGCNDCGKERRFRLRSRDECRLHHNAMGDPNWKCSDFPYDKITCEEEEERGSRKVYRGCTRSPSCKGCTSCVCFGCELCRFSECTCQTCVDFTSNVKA

T2: U…1 (ULT1), full length, GAL4 DNA-BD fusion (pGBKT7) (Arabidopsis thaliana) (UniProt Q8GZA8)
T2 sequence: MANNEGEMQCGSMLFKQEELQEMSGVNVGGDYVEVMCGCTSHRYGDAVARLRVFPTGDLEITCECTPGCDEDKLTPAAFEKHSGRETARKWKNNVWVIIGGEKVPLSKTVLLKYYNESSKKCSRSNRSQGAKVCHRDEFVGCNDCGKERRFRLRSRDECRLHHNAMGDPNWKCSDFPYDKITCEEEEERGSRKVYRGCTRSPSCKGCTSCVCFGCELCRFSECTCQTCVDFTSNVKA

T3: ULT1-mCherry (XVE:ULT1-mCherry), full length (Arabidopsis thaliana) (UniProt Q8GZA8)
T3 sequence: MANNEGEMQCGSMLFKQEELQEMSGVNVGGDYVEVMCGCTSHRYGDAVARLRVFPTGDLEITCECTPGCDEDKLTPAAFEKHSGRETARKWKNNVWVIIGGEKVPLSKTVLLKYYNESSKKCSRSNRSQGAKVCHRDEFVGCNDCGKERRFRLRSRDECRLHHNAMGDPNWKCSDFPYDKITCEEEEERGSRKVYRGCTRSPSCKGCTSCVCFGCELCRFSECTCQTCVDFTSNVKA

T4: CLF, full length, split-luciferase fusion (CLF-nLUC and CLF-cLUC) (Arabidopsis thaliana), P93831
T4 chain: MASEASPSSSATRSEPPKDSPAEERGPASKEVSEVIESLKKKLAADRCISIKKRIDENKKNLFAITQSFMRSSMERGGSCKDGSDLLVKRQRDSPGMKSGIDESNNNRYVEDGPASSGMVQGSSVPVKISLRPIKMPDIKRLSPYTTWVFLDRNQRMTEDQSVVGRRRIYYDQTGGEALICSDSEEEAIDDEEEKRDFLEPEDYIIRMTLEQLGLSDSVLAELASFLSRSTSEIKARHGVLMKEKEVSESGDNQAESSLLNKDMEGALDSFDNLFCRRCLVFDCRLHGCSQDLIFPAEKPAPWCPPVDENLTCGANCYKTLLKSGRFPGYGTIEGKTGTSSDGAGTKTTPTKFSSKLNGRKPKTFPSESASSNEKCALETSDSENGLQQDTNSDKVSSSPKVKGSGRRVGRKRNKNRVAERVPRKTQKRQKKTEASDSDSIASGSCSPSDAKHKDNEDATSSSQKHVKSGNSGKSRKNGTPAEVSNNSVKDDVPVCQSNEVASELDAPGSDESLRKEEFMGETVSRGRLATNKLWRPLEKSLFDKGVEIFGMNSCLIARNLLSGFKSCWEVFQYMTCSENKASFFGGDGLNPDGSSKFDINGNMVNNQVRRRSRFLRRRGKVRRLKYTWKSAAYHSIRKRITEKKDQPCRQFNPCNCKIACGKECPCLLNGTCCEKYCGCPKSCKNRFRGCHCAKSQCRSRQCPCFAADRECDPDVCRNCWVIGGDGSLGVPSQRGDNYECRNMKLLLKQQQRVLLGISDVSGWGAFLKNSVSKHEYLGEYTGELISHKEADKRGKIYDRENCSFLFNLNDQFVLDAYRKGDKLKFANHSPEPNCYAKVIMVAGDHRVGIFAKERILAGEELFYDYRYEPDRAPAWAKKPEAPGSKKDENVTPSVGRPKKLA


Columns and labels:
[1] = biological target: T1, ULT1, full length, split-luciferase fusion (ULT1-nLUC and ULT1-cLUC) (Arabidopsis thaliana); test: split reporter
[2] = biological target: T2, U…1 (ULT1), full length, GAL4 DNA-BD fusion (pGBKT7) (Arabidopsis thaliana); test: two-hybrid
[3] = biological target: T3, ULT1-mCherry (XVE:ULT1-mCherry), full length (Arabidopsis thaliana); test: FRET or BRET
[4] = biological target: T4, CLF, full length, split-luciferase …; test: split reporter; conditions: remark: other sources report otherwise

Row | binding [1] | binding [2] | Binder | also measured
1 | binds | – | ULT1, full length, split-luciferase fusion (ULT1-nLUC and ULT1-cLUC) (protein, UniProt Q8GZA8 1-237) MANNEGEMQCGSMLFKQEELQEMSGVNVGGDYVEVMCGCTSHRYGDAVARLRVFPTGDLEITCECTPGCDEDKLTPAAFEKHSGRETARKWKNNVWVIIGGEKVPLSKTVLLKYYNESSKKCSRSNRSQGAKVCHRDEFVGCNDCGKERRFRLRSRDECRLHHNAMGDPNWKCSDFPYDKITCEEEEERGSRKVYRGCTRSPSCKGCTSCVCFGCELCRFSECTCQTCVDFTSNVKA | –
2 | – | binds | EMBRYONIC FLOWER 1 (EMF1), full length, yeast two-hybrid fusion (protein, UniProt Q9LYD9 1-1096) MGSSIKINSISIDLAGAANEIDMVKCDHFSMRGFVAETRERDLRKCWPFSEESVSLVDQQSYTLPTLSVPKFRWWHCMSCIKDIDAHGPKDCGLHSNSKAIGNSSVIESKSKFNSLTIIDHEKEKKTDIADNAIEEKVGVNCENDDQTATTFLKKARGRPMGASNVRSKSRKLVSPEQVGNNRSKEKLNKPSMDISSWKEKQNVDQAVTTFGSSEIAGVVEDTPPKATKNHKGIRGLMECDNGSSESINLAMSGLQRRKSRKVRLLSELLGNTKTSGGSNIRKEESALKKESVRGRKRKLLPENNYVSRILSTMGATSENASKSCDSDQGNSESTDSGFDRTPFKGKQRNRRFQVVDEFVPSLPCETSQEGIKEHDADPSKRSTPAHSLFTGNDSVPCPPGTQRTERKLSLPKKKTKKPVIDNGKSTVISFSNGIDGSQVNSHTGPSMNTVSQTRDLLNGKRVGGLFDNRLASDGYFRKYLSQVNDKPITSLHLQDNDYVRSRDAEPNCLRDFSSSSKSSSGGWLRTGVDIVDFRNNNHNTNRSSFSNLKLRYPPSSTEVADLSRVLQKDASGADRKGKTVMVQEHHGAPRSQSHDRKETTTEEQNNDDIPMEIVELMAKNQYERCLPDKEEDVSNKQPSQETAHKSKNALLIDLNETYDNGISLEDNNTSRPPKPCSSNARREEHFPMGRQQNSHDFFPISQPYVPSPFGIFPPTQENRASSIRFSGHNCQWLGNLPTVGNQNPSPSSFRVLRACDTCQSVPNQYREASHPIWPSSMIPPQSQYKPVSLNINQSTNPGTLSQASNNENTWNLNFVAANGKQKCGPNPEFSFGCKHAAGVSSSSSRPIDNFSSESSIPALHLLSLLDPRLRSTTPADQHGNTKFTKRHFPPANQSKEFIELQTGDSSKSAYSTKQIPFDLYSKRFTQEPSRKSFPITPPIGTSSLSFQNASWSPHHQEKKTKRKDTFAPVYNTHEKPVFASSNDQAKFQLLGASNSMMLPLKFHMTDKEKKQKRKAESCNNNASAGPVKNSSGPIVCSVNRNPADFTIPEPGNVYMLTGEHLKVRKRTTFKKKPAVCKQDAMKQTKKPVCPPTQNA | –
3 | – | – | CLF-mVenus (XVE:CLF-mVenus), full length (protein, UniProt P93831 1-902) MASEASPSSSATRSEPPKDSPAEERGPASKEVSEVIESLKKKLAADRCISIKKRIDENKKNLFAITQSFMRSSMERGGSCKDGSDLLVKRQRDSPGMKSGIDESNNNRYVEDGPASSGMVQGSSVPVKISLRPIKMPDIKRLSPYTTWVFLDRNQRMTEDQSVVGRRRIYYDQTGGEALICSDSEEEAIDDEEEKRDFLEPEDYIIRMTLEQLGLSDSVLAELASFLSRSTSEIKARHGVLMKEKEVSESGDNQAESSLLNKDMEGALDSFDNLFCRRCLVFDCRLHGCSQDLIFPAEKPAPWCPPVDENLTCGANCYKTLLKSGRFPGYGTIEGKTGTSSDGAGTKTTPTKFSSKLNGRKPKTFPSESASSNEKCALETSDSENGLQQDTNSDKVSSSPKVKGSGRRVGRKRNKNRVAERVPRKTQKRQKKTEASDSDSIASGSCSPSDAKHKDNEDATSSSQKHVKSGNSGKSRKNGTPAEVSNNSVKDDVPVCQSNEVASELDAPGSDESLRKEEFMGETVSRGRLATNKLWRPLEKSLFDKGVEIFGMNSCLIARNLLSGFKSCWEVFQYMTCSENKASFFGGDGLNPDGSSKFDINGNMVNNQVRRRSRFLRRRGKVRRLKYTWKSAAYHSIRKRITEKKDQPCRQFNPCNCKIACGKECPCLLNGTCCEKYCGCPKSCKNRFRGCHCAKSQCRSRQCPCFAADRECDPDVCRNCWVIGGDGSLGVPSQRGDNYECRNMKLLLKQQQRVLLGISDVSGWGAFLKNSVSKHEYLGEYTGELISHKEADKRGKIYDRENCSFLFNLNDQFVLDAYRKGDKLKFANHSPEPNCYAKVIMVAGDHRVGIFAKERILAGEELFYDYRYEPDRAPAWAKKPEAPGSKKDENVTPSVGRPKKLA | binding [3]: binds
4 | – | binds | CURLY LEAF (CLF), full length, yeast two-hybrid fusion (protein, UniProt P93831 1-902) MASEASPSSSATRSEPPKDSPAEERGPASKEVSEVIESLKKKLAADRCISIKKRIDENKKNLFAITQSFMRSSMERGGSCKDGSDLLVKRQRDSPGMKSGIDESNNNRYVEDGPASSGMVQGSSVPVKISLRPIKMPDIKRLSPYTTWVFLDRNQRMTEDQSVVGRRRIYYDQTGGEALICSDSEEEAIDDEEEKRDFLEPEDYIIRMTLEQLGLSDSVLAELASFLSRSTSEIKARHGVLMKEKEVSESGDNQAESSLLNKDMEGALDSFDNLFCRRCLVFDCRLHGCSQDLIFPAEKPAPWCPPVDENLTCGANCYKTLLKSGRFPGYGTIEGKTGTSSDGAGTKTTPTKFSSKLNGRKPKTFPSESASSNEKCALETSDSENGLQQDTNSDKVSSSPKVKGSGRRVGRKRNKNRVAERVPRKTQKRQKKTEASDSDSIASGSCSPSDAKHKDNEDATSSSQKHVKSGNSGKSRKNGTPAEVSNNSVKDDVPVCQSNEVASELDAPGSDESLRKEEFMGETVSRGRLATNKLWRPLEKSLFDKGVEIFGMNSCLIARNLLSGFKSCWEVFQYMTCSENKASFFGGDGLNPDGSSKFDINGNMVNNQVRRRSRFLRRRGKVRRLKYTWKSAAYHSIRKRITEKKDQPCRQFNPCNCKIACGKECPCLLNGTCCEKYCGCPKSCKNRFRGCHCAKSQCRSRQCPCFAADRECDPDVCRNCWVIGGDGSLGVPSQRGDNYECRNMKLLLKQQQRVLLGISDVSGWGAFLKNSVSKHEYLGEYTGELISHKEADKRGKIYDRENCSFLFNLNDQFVLDAYRKGDKLKFANHSPEPNCYAKVIMVAGDHRVGIFAKERILAGEELFYDYRYEPDRAPAWAKKPEAPGSKKDENVTPSVGRPKKLA | –
5 | binds | – | CLF, full length, split-luciferase fusion (CLF-nLUC and CLF-cLUC) (protein, UniProt P93831 1-902) MASEASPSSSATRSEPPKDSPAEERGPASKEVSEVIESLKKKLAADRCISIKKRIDENKKNLFAITQSFMRSSMERGGSCKDGSDLLVKRQRDSPGMKSGIDESNNNRYVEDGPASSGMVQGSSVPVKISLRPIKMPDIKRLSPYTTWVFLDRNQRMTEDQSVVGRRRIYYDQTGGEALICSDSEEEAIDDEEEKRDFLEPEDYIIRMTLEQLGLSDSVLAELASFLSRSTSEIKARHGVLMKEKEVSESGDNQAESSLLNKDMEGALDSFDNLFCRRCLVFDCRLHGCSQDLIFPAEKPAPWCPPVDENLTCGANCYKTLLKSGRFPGYGTIEGKTGTSSDGAGTKTTPTKFSSKLNGRKPKTFPSESASSNEKCALETSDSENGLQQDTNSDKVSSSPKVKGSGRRVGRKRNKNRVAERVPRKTQKRQKKTEASDSDSIASGSCSPSDAKHKDNEDATSSSQKHVKSGNSGKSRKNGTPAEVSNNSVKDDVPVCQSNEVASELDAPGSDESLRKEEFMGETVSRGRLATNKLWRPLEKSLFDKGVEIFGMNSCLIARNLLSGFKSCWEVFQYMTCSENKASFFGGDGLNPDGSSKFDINGNMVNNQVRRRSRFLRRRGKVRRLKYTWKSAAYHSIRKRITEKKDQPCRQFNPCNCKIACGKECPCLLNGTCCEKYCGCPKSCKNRFRGCHCAKSQCRSRQCPCFAADRECDPDVCRNCWVIGGDGSLGVPSQRGDNYECRNMKLLLKQQQRVLLGISDVSGWGAFLKNSVSKHEYLGEYTGELISHKEADKRGKIYDRENCSFLFNLNDQFVLDAYRKGDKLKFANHSPEPNCYAKVIMVAGDHRVGIFAKERILAGEELFYDYRYEPDRAPAWAKKPEAPGSKKDENVTPSVGRPKKLA | –
6 | – | – | FVE/MSI4, full length, cLUC fusion (FVE-cLUC), O22607 1-507 (protein) MESDEAAAVSPQATTPSGGTGASGPKKRGRKPKTKEDSQTPSSQQQSDVKMKESGKKTQQSPSVDEKYSQWKGLVPILYDWLANHNLVWPSLSCRWGPQLEQATYKNRQRLYLSEQTDGSVPNTLVIANCEVVKPRVAAAEHISQFNEEARSPFVKKYKTIIHPGEVNRIRELPQNSKIVATHTDSPDVLIWDVETQPNRHAVLGAANSRPDLILTGHQDNAEFALAMCPTEPFVLSGGKDKSVVLWSIQDHITTIGTDSKSSGSIIKQTGEGTDKNESPTVGPRGVYHGHEDTVEDVAFSPTSAQEFCSVGDDSCLILWDARTGTNPVTKVEKAHDADLHCVDWNPHDDNLILTGSADNTVRLFDRRKLTANGVGSPIYKFEGHKAAVLCVQWSPDKSSVFGSSAEDGLLNIWDYDRVSKKSDRAAKSPAGLFFQHAGHRDKVVDFHWNASDPWTIVSVSDDCETTGGGGTLQIWRMSDLIYRPEEEVVAELEKFKSHVMTCASKP | binding [4]: binds
